Reference: patent publication US20130189255A1, “FUSIONS AND CONJUGATES OF INSULINOTROPIC AGENTS” (GLAXO GROUP LIMITED, priority 2008, published 2013)
These are yes or no findings as the source states them, for the method shown. Some entries that bind do so weakly or less than the wild type. Where a sequence is shown, tags or fusion partners need not be part of it.

By UniProt entry, the sequences of proteins in these tests, tags left out. Residues count along the entry.
UniProt P02768, residues 25-609: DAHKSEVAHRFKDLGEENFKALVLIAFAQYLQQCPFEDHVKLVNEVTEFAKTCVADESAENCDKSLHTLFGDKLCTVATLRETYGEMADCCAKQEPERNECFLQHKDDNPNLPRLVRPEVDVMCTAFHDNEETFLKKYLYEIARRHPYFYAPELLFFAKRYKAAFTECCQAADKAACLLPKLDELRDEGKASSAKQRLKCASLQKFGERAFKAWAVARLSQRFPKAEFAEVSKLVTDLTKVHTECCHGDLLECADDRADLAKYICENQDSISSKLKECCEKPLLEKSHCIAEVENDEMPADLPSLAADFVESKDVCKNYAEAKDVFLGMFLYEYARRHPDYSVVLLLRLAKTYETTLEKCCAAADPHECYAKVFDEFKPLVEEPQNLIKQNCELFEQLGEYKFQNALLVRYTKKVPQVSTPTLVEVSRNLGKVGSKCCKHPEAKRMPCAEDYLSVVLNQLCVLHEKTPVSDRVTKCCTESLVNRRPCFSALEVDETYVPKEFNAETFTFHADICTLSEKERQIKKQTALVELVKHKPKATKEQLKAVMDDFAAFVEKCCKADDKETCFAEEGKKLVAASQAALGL
UniProt P07724, residues 25-608: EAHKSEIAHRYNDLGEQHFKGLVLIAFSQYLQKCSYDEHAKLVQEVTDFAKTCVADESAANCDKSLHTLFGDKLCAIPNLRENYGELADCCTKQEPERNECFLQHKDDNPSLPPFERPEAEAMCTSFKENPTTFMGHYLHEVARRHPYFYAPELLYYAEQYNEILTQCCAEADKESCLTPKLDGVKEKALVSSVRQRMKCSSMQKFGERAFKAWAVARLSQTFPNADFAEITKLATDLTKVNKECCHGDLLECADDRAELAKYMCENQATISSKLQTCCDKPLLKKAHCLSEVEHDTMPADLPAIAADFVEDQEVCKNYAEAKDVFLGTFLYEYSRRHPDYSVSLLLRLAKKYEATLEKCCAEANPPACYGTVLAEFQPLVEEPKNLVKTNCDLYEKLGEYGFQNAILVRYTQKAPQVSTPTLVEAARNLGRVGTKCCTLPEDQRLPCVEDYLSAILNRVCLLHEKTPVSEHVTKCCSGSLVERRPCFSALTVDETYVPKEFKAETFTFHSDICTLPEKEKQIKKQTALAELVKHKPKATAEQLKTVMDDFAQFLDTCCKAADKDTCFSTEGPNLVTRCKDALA
UniProt P02770, residues 25-608: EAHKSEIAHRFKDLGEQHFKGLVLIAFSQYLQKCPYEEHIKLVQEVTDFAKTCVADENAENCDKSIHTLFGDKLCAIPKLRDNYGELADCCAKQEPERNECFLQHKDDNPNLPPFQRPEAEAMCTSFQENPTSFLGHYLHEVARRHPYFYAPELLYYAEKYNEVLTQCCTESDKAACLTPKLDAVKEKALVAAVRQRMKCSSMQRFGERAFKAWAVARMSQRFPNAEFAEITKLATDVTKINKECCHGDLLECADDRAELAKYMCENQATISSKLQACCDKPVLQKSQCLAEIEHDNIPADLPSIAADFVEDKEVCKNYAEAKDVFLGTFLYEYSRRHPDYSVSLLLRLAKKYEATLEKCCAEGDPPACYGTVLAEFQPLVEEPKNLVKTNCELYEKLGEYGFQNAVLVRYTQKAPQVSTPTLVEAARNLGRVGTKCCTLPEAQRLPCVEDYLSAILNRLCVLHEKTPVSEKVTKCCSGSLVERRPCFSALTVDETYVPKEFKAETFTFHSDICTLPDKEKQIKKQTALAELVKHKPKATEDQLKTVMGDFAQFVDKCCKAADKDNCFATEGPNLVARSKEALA

Legend:
Assay in all cases: SPR (Biacore), albumin immobilised on CM5 chip
[1] = biological target: Human serum albumin (human) (UniProt P02768)
[2] = biological target: Mouse serum albumin (mouse) (UniProt P07724)
[3] = biological target: Rat serum albumin (rat) (UniProt P02770)

Measured: binding

B1: 2xGLP-1 (7-37) A8G DOM7h-14 dAb fusion (DAT0114) (protein)
chain: HGEGTFTSDVSSYLEGQAAKEFIAWLVKGRHGEGTFTSDVSSYLEGQAAKEFIAWLVKGRDIQMTQSPSSLSASVGDRVTITCRASQWIGSQLSWYQQKPGKAPKLLIMWRSSLQSGVPSRFSGSGSGTDFTLTISSLQPEDFATYYCAQGAALPRTFGQGTKVEIKA
binds: all assays above
